{
  "sequences": {"note": "Protein sequences, listed by entry. Tags and fused reporters are not part of them.", "UniProt P18054, whole entry, looked up": "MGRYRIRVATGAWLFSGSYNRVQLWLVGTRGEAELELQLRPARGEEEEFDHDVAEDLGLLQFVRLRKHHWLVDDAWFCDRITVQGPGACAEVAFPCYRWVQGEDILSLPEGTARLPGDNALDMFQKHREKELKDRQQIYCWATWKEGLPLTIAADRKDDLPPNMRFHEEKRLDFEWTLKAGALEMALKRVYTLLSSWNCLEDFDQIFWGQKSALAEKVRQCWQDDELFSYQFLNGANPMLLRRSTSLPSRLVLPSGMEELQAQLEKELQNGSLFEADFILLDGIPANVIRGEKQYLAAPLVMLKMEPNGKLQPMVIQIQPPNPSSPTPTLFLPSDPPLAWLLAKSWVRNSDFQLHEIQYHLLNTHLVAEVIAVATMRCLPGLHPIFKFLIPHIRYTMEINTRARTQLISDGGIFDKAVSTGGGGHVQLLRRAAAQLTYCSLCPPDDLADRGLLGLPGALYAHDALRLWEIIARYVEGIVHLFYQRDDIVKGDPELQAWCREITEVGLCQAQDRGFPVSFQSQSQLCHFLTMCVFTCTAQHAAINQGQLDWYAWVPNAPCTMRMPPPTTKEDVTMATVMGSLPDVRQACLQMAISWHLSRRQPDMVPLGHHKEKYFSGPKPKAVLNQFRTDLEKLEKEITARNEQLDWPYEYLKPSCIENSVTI"},
  "source": "PubChem BioAssay AID1671190",
  "about": "(National Center for Advancing Translational Sciences (NCATS), 2021)",
  "note": "The whole screen tested about 580,000 compounds, of which about 6,100 (1.1%) were called active. Inconclusive results, whose numbers are uncertain, are shown with a selection of clear calls. Calls come from the whole dose curve; as a rule, active = well fitted inhibition curve with a large enough effect; inconclusive = small, poorly fitted or top-dose-only effect, or another doubt; inactive = no such curve, though single readings can be large or run the other way. Where the call is inconclusive, the potency comes from a doubtful curve fit. % is set by controls: 0 for no effect and ±100 for the full control effect; potency is the fitted concentration of half-maximal effect.",
  "data": [
    {"target": "Polyunsaturated fatty acid lipoxygenase ALOX12 (Homo sapiens) (UniProt P18054)", "test": "Primary qHTS assay for inhibitors of human arachidonate 12S-lipoxygenase (ALOX12): Round 2", "conditions": "purified 12hLO, xylenol orange hydroperoxide absorbance; activity change, negative = inhibition: at 108 µM (top of the series) unless noted", "outline": "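Hydroperoxide product was detected by ferrous iron/xylenol orange as the 573 to 405 nm absorbance ratio. Arachidonic acid at 40 uM (final) was turned over for 30 min at room temperature by 150 nM human 12hLO, pH 7.0 Hepes buffer, after 15 min compound preincubation.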", "values": [
      {"smiles": "CCC(CC)C(=O)NC[C@H]1O[C@@H](CC(=O)N2CCN(c3ccccn3)CC2)[C@H](O)[C@@H]1O", "Potency": "inconclusive: 100 µM [inhibitor, partial curve, poor fit]"},
      {"smiles": "O=C(O)c1cc(F)cc(Br)c1", "activity change, negative = inhibition": "inactive: -96.7%"},
      {"smiles": "O=C(NCc1ccccc1)c1ccco1", "activity change, negative = inhibition": "inactive: 152%"},
      {"smiles": "CCCC(=O)NC1CCc2cc(OC)c(OC)c(OC)c2-c2ccc(OC)c(=O)cc21", "note": "(centres undefined)", "Potency": "inconclusive: 44.7 µM [inhibitor, partial curve]"},
      {"smiles": "COc1ccc(-n2nc([N+](=O)[O-])c(=NCc3cccnc3)n2O)cc1", "activity change, negative = inhibition": "inactive: -13.3%"},
      {"smiles": "O=C(CNS(=O)(=O)c1cccs1)N1CCc2ccccc2C1", "Potency": "inconclusive: 158 µM [inhibitor, partial curve, poor fit]"},
      {"smiles": "COc1cccc(CNc2nc(NCc3ccccc3OC)nc3ccsc23)c1", "Potency": "inconclusive: 44.7 µM [inhibitor, partial curve, poor fit]"},
      {"smiles": "C/C(=C\\C=C(C#N)C#N)c1cc(C#N)c(N)o1", "Potency": "inconclusive: 56.2 µM [inhibitor, partial curve, poor fit]"},
      {"smiles": "COc1ccc(C(C)=O)cc1CSC(=N)N", "activity change, negative = inhibition": "inactive: 0.129%"},
      {"smiles": "CCC(C)CNC(=S)NC1CC1", "note": "(centres undefined)", "Potency": "inconclusive: 50.1 µM [inhibitor, partial curve, poor fit]"},
      {"smiles": "COn1c(-c2ccccc2)nc2ccc(Cl)cc21", "Potency": "inconclusive: 50.1 µM [inhibitor, partial curve, poor fit]"},
      {"smiles": "CC1CCc2[nH]c3ccc(C(=O)Nc4ccc(C(=O)N(C)C)cc4)cc3c2C1", "note": "(centres undefined)", "activity change, negative = inhibition": "inactive: 449%"},
      {"smiles": "OC1CCN(C(=S)Nc2ccc(Nc3ccccc3)cc2)CC1", "Potency": "inconclusive: 39.8 µM [inhibitor, partial curve, poor fit]"},
      {"smiles": "CC(/C=C/c1ccc(O)cc1)=N/O", "activity change, negative = inhibition": "inactive: 0%"},
      {"smiles": "CN(C)c1ccc(C(=O)/C=C/c2cc3ccccc3nc2N2CCOCC2)cc1", "Potency": "inconclusive: 15.8 µM [inhibitor, full curve, poor fit]"},
      {"smiles": "O=C1C(=O)N2C(=C1C(=O)N1CCCCCC1)c1ccccc1CC21CCCC1", "Potency": "inconclusive: 35.5 µM [inhibitor, single point]"},
      {"smiles": "O=C(Nc1ccc(Br)cc1)c1cnc[nH]1", "Potency": "inconclusive: 3.16 µM [inhibitor, full curve, poor fit]"},
      {"smiles": "COc1ccc(NC(=O)CSc2nc3c([nH]c4ccccc43)c(=O)n2-c2ccccc2)c(OC)c1", "Potency": "inconclusive: 112 µM [inhibitor, partial curve, poor fit]"},
      {"smiles": "CC1(c2ccc3noc(-c4ccc(Cl)cc4)c3c2)OCCO1", "Potency": "inconclusive: 56.2 µM [inhibitor, partial curve, poor fit]"}
    ]}
  ]
}
